These are yes or no findings as the source states them, for the method shown. In cells and extracts the contact can be indirect. Here binding means that the protein was enriched with, or labelled near, the bait; the list need not be complete.
Target: zinc-finger antiviral protein (ZAP, ZC3HAV1), endogenous, immunoprecipitated from Calu-3 lysate (human (endogenous in Calu-3)) (UniProt Q7Z2W4)
Assay: affinity purification with mass spectrometry

The chains behind the UniProt entries cited, without tags or fusion partners.
UniProt Q7Z2W4: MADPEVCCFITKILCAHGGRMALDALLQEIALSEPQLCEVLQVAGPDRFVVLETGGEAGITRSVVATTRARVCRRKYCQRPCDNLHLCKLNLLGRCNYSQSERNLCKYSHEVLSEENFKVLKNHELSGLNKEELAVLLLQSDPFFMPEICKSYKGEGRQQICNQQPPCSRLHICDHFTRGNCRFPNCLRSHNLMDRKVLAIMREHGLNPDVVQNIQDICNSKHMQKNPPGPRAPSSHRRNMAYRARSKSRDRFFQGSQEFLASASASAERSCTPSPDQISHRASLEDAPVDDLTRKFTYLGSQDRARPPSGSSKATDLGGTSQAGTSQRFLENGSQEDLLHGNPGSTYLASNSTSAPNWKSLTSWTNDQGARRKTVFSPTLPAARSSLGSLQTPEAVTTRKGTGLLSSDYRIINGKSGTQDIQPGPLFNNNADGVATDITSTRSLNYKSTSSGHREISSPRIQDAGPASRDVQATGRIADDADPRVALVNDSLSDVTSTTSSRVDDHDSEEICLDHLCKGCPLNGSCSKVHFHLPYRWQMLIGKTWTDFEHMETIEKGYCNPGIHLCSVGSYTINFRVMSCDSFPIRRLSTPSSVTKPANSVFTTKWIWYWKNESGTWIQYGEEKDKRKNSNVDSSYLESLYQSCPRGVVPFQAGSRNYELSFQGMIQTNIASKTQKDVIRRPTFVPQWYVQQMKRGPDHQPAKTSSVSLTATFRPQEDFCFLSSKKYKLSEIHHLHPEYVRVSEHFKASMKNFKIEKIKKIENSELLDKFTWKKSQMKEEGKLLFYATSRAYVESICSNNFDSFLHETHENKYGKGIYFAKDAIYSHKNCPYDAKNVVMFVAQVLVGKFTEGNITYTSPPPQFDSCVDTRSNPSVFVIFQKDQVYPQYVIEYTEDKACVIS
UniProt P05387: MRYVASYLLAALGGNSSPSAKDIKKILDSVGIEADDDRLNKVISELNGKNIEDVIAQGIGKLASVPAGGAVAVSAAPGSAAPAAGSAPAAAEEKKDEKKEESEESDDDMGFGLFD
UniProt P19474: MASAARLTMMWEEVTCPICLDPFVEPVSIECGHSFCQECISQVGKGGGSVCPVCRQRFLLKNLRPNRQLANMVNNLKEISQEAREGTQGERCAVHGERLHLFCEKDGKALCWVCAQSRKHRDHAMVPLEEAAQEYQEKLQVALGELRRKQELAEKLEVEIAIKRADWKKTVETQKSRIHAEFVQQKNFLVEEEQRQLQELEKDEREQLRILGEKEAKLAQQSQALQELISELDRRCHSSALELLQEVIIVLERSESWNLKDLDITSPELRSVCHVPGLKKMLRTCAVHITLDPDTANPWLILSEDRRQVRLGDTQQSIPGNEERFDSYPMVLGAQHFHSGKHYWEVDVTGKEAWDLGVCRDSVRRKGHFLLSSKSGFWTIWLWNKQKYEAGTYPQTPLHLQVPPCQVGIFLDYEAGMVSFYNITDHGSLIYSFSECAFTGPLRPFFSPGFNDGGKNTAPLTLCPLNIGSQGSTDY

Row | Substance | binding
1 | RPLP2 (from UniProt P05387 1-115) | binds
2 | TRIM21 (from UniProt P19474 1-475) | binds
3 | eIF4H (from UniProt Q15056 1-248) | binds
